This experiment addresses LRIM1/APL1C complex, His-tagged (wild type) (Anopheles gambiae). The experiment is described as follows: pull-down; 200 uL each of Sf9 conditioned media (HSV-tagged TEP; His-tagged LRIM1 and/or APL1C alleles) mixed, 0.1% triton X-100, Talon resin, 3 h at room temperature, washed in PBS with 0.1% triton X-100; His-bound material probed with anti-HSV.

No constants are given. Whether binding was seen depends on the method and setting. In cells and extracts the contact can be indirect. Binding can be weak; no strength is given. Where a sequence is shown, tags or fusion partners need not be part of it.

B1: TEP1, full-length, HSV-tagged (protein, UniProt Q9GYW4 22-1340)
chain: LLVVGPKFIRANQEYTLVISNFNSQLSKVDLLLKLEGETDNGLSVLNVTKMVDVRRNMNRMINFNMPEELTAGNYKITIDGQRGFSFHKEAELVYLSKSISGLIQVDKPVFKPGDTVNFRVILLDTELKPPARVKSVYVTIRDPQRNVIRKWSTAKLYAGVFESDLQIVPTPMLGVWNISVEVEGEELVSKTFEVKEYVLSTFDVQVMPSVIPLEEHQAVNLTIEANYHFGKPVQGVAKVELYLDDDKLNQKKELTVYGKGQVELRFDNFAMDADQQDVRVKVSFIEQYTNRTVVKQSQITVYRYAYRVELIKESPQFRPGLPFKCALQFTHHDGTPAKGITGKVEVSDVGFETTTTSDNDGLIKLELQPSEGTEQLGINFNAVDGFFFYEDVNKVETVTDAYIKLELKSPIKRNKLMRFMVTCTERMTFFVYYVMSKGNIIDAGFMRPNKQTKYLLQLNATEKMIPKAKILIATVAGRTVVYDYADLDFQELRNNFDLSIDEQEIKPGRQIELSMSGRPGAYVGLAAYDKALLLFNKNHDLFWEDIGQVFDGFHAINENEFDIFHSLGLFARTLDDILFDSANEKTGRNALQSGKPIGKLVSYRTNFQESWLWKNVSIGRSGSRKLIEVVPDTTTSWYLTGFSIDPVYGLGIIKKPIQFTTVQPFYIVENLPYSIKRGEAVVLQFTLFNNLGAEYIADVTLYNVANQTEFVGRPDTDLSYTKSVSVPPKVGVPISFLIKARKLGEMAVRVKASIMLGHETDALEKVIRVMPESLAQPKMDTSFFCFDDYKNQTFPFNLDINKKADNGSKKIEFRLNPNLLTMVIKNLDNLLAVPTGCGEQNMVKFVPNILVLDYLYATGSKEQHLIDKATNLLRQGYQNQMRYRQTDGSFGVWEKSGSSVFLTAFVATSMQTASKYMNDIDAAMVEKALDWLASKQHSSGRFDETGKVWHKDMQGGLRNGVALTSYVLTALLENDIAKVKHAVVIQNGMNYLSNQLAFINNPYDLSIATYAMMLNGHTMKKEALDKLIDMSISDNNKKERYWGTTNQIETTAYALLSFVMAEKYLDGIPVMNWLVNQRYVTGSFPRTQDTFVGLKALTKLAEKISPSRNDYTVQLKYKKNTKYFNINSEQIDVQNFLEIPEDTKKLEINVGGIGFGLLEVIYQFDLNLVNFEHRFKLDLEKQNTGSDYELRLRVCANYIPELTDSQSNMALIEVTLPSGYVVDRNPISEQTTVNPIQNMEIRYGGTSVVLYYYKMGTERNCFTVTAYRRFKVALKRPAYVVVYDYYNTNLNAIKVYEVDKQNVCEICEEEDCPAECKK
B1: the binding result was “binds weakly”.

(Values after publication PMC3077365.)
